In this experiment the target is p47 UBX domain (residues 282-371) (Mus musculus) (UniProt Q9CZ44). As to the kind of experiment: SEC; HiLoad 16/60 Superdex 75 gel filtration column, during purification of p47 UBX; both purified. (In gel filtration, larger molecules generally elute earlier.)

No constants are given. Whether binding was seen depends on the method and setting.

B1: p47 UBX domain (residues 282-371) (domain or fragment, UniProt Q9CZ44 282-370)
chain: KASSSILINEAEPTTNIQIRLADGGRLVQKFNHSHRISDIRLFIVDARPAMAATSFVLMTTFPNKELADENQTLKEANLLNAVIVQRLT
Consider B1, for which the binding entry was “no binding”.

For the origin of these results see article PMC5102582 (eLife, 2016).
